Measurements taken from PubChem BioAssay AID504834 (National Center for Advancing Translational Sciences (NCATS), 2011).
Where “and” joins values, the source holds several entries; their conditions need not be identical. Identical values can stand only once. The whole screen tested about 320,000 compounds, of which about 22,000 (6.9%) were called active. The shares of active, inactive and inconclusive entries below differ from those in the screen. Calls follow the shape of the dose curve; as a rule, active = well fitted inhibition curve with a large enough effect; inconclusive = small, poorly fitted or top-dose-only effect, or another doubt; inactive = no such curve, though single readings can be large or run the other way. Potencies of inconclusive entries are doubtful fits and often do not repeat.

Assay: Primary qHTS for delayed death inhibitors of the malarial parasite plastid, 96 hour incubation
Settings: P. falciparum luciferase reporter growth; series mostly up to 28.7 µM
Summary of the method: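 Delayed-death screen, second-generation endpoint: infected erythrocytes, 2% hematocrit, 0.05% parasitemia final; 96 hours at 37 C, 5% CO2; luciferase detection reagent; luminescence decrease equals reduced growth.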
Potency is read from the fitted curve at half-maximal effect.

Row | SMILES | Potency
1 | COc1ccc(CCNC(=O)CSc2nnc(-c3ccc(F)cc3)c3ccccc23)cc1OC | active: 5.22 µM
2 | CC(=O)Nc1ccc(NC(=O)C2CCCN2/C=C/C(=O)C(F)(F)F)cc1 (stereo unspecified) | inactive
3 | C[C@H]1O[C@H](O[C@H]2[C@H](O[C@@H]3CC[C@@]4(C)C(CC[C@]5(C)C4CC=C4[C@@H]6CC(C)(C)CC[C@]6(C(=O)O[C@@H]6O[C@H](CO)[C@@H](O)[C@H](O)[C@H]6O)CC[C@]45C)C3(C)C)O[C@H](C(=O)O)[C@@H](O)[C@@H]2O)[C@@H](O)[C@@H](O)[C@@H]1O (stereo partly specified) | inactive
4 | O=C(NC(=S)Nc1ccc(Cl)cc1Cl)C1CC1 | inactive
5 | Cc1ccccc1Nc1nc(N)nc(CCl)n1 | active: 5.22 µM
6 | CCOC(=O)C1(Cc2ccccc2)CCN(C2Cc3ccccc3C2)CC1 | inconclusive: 13.1 µM [inhibitor, partial curve, poor fit]
7 | COC(=O)C1=C(c2ccc(F)cc2OCc2ccccc2)C[C@@H]2CC[C@H]1N2C(=O)NCc1ccc2c(c1)OCO2 | inconclusive: 1.47 µM [inhibitor, partial curve, poor fit]
8 | COc1ccc(NC(=O)CC#N)cc1OC | inconclusive: 0.0586 µM [inhibitor, full curve, poor fit]
9 | Cc1ccc(C2CC2C(=O)NN)cc1 (stereo unspecified) | inconclusive: 4.15 µM [inhibitor, single point]
10 | Cc1ccccc1NC(=O)c1ccc(F)c(S(=O)(=O)NCC2CCCO2)c1 (stereo unspecified) | inactive
11 | Cc1cccc(N2C(N)=C(C#N)C(C#N)(C#N)C2c2ccccc2)c1 (stereo unspecified) | inconclusive: 11.7 µM [inhibitor, single point]
12 | CSCCC(NC(=O)c1ccc(Cl)cc1)C(=O)OCC(=O)Nc1cc(Cl)ccc1C#N (stereo unspecified) | inactive
13 | CC(C)(C)C(=O)NC(n1cnc2c(N3CCOCC3)ncnc21)C(Cl)(Cl)Cl (stereo unspecified) | inactive
14 | O=[N+]([O-])c1ccc(N/N=C/c2cccnc2)cc1 | inconclusive: 11.7 µM [inhibitor, partial curve, poor fit]
15 | O=C(N/N=C/c1c(O)ccc2ccccc12)c1[nH]ncc1Br | active: 11.7 µM
16 | Cn1c(=O)oc2cc(S(=O)(=O)Nc3cccc(F)c3)ccc21 | inactive
17 | CC1CN(Cc2nnc(-c3ccccc3)o2)CC(C)O1 (stereo unspecified) | inconclusive: 18.5 µM [inhibitor, single point]
18 | COc1ccc(CCNCc2ccccc2N2CCCC2)cc1 | inconclusive: 9.28 µM [inhibitor, partial curve, poor fit]
19 | COc1ccc(S(=O)(=O)Nc2ccccc2SC)cc1C | inconclusive: 11.7 µM [inhibitor, single point]
20 | COc1ccc(CCC(=O)NCCc2nc3ccccc3[nH]2)cc1 | inconclusive: 4.65 µM [inhibitor, partial curve, poor fit]
21 | CCOC(=O)CSc1nnc(CSc2nc3ccccc3s2)n1C | inactive
22 | CCn1c(=O)c(C(=O)CN(C)CC(=O)Nc2ccccc2Br)c(N)n(Cc2ccccc2)c1=O | inconclusive: 9.28 µM [inhibitor, partial curve]
23 | COc1ccc(CCn2c(O)c(C=Nc3ccc(F)cc3)c(=O)[nH]c2=O)cc1OC | inactive

Row | SMILES | Potency
24 | Cc1ccc(C)c(NC(=O)CS(=O)(=O)c2cccc3nsnc23)c1 | inactive
25 | Cn1ccnc1SCCNC(=O)CCc1nnc(CCCCc2ccccc2)o1 | inconclusive: 9.28 µM [inhibitor, single point]
26 | COc1cc(C(=O)NCc2nnc(SCC(=O)NC3CCCC3)o2)cc(OC)c1OC | active: 8.28 µM
27 | Cc1nc2n(n1)C(O)c1cc([N+](=O)[O-])ccc1S2 (stereo unspecified) | inactive
28 | CCC(C)c1ccc(S(=O)(=O)N2CCN(CC(O)CN3CCOCC3)CC2)cc1 (stereo unspecified) | inactive
29 | C/C=C(/C)C(=O)OC1c2c(ccc3ccc(=O)oc23)OC(C)(C)C1OC(=O)/C(C)=C\C (stereo unspecified) | active: 1.47 µM
30 | C/C(=N/N=C1/NC(=O)CC(C(=O)Nc2ccccc2)S1)c1cccs1 (stereo unspecified) | active: 9.28 µM
31 | COc1cc(/C=C(/C#N)c2nc3ccccc3c(=O)[nH]2)ccc1O | inconclusive: 13.1 µM [inhibitor, partial curve, poor fit]
32 | O=C(Cn1cc(C(F)(F)F)ccc1=O)N/N=C/c1cccc(Cl)c1Cl | inconclusive: 2.08 µM [inhibitor, single point]
33 | Cc1cccc(NC(=S)NC(=O)c2ccc(Br)o2)c1 | inactive
34 | CCOc1ccc(S(=O)(=O)N(C)CCO)cc1-c1nc2c(C(C)(C)C)nn(C)c2c(=O)[nH]1 | inactive
35 | Cn1c(=O)c2c(nc(CN3CCN(C(=O)c4ccco4)CC3)n2Cc2ccccc2F)n(C)c1=O | active: 1.47 µM
36 | COc1ccc(NC2=Nc3cccc4cccc2c34)cc1OC | inconclusive: 18.5 µM [inhibitor, single point]
37 | CC1=C(C/C=C(\C)CCCC(C)CCCC(C)CCCC(C)C)C(=O)c2ccccc2C1=O (stereo unspecified) | inconclusive: 15.1 µM [inhibitor, single point] and inconclusive: 657 nM [inhibitor, full curve]
38 | COc1cc(C(=O)NCc2ccncc2)cc(Br)c1OCc1ccccc1 | inconclusive: 18.5 µM [inhibitor, single point]
39 | COc1ccc(C(=O)NCCn2cc(SCC(=O)N3CCOCC3)c3ccccc32)cc1 | inactive
40 | Cc1ccc(S(=O)(=O)N[C@H](C(=O)N2CCC(C(=O)N3CCC[C@H]3C(=O)O)CC2)C(C)C)cc1 | inactive
41 | c1ccc(-c2ccccc2OCCCN2CCOCC2)cc1 | inactive
42 | Cc1nn(-c2ccccc2)c(N2CCCC2)c1/C=N/Nc1ccc(S(N)(=O)=O)cc1[N+](=O)[O-] | inconclusive: 18.5 µM [inhibitor, single point]
43 | COc1ccc(-c2nnnn2C(C)C)cc1 | inactive
44 | CC(C)=CCN1CCN(Cc2cccnc2)CC1CCO (stereo unspecified) | inconclusive: 18.5 µM [inhibitor, single point]
45 | C=CCN(CC=C)CCOc1cccc2ccccc12 | inactive
46 | CCCCOC(=O)c1ccc(NC(=S)NC(=O)c2c(Br)c(C)nn2C)cc1 | inconclusive: 13.1 µM [inhibitor, partial curve, poor fit]
